From publication PMC5035991
Residue numbers refer to the chain shown, from its start. Numbers in names are those of the source. Results are given in words; binding and its absence hold for the method and conditions named. In cells and extracts the contact can be indirect. Some entries that bind do so weakly or less than the wild type. Where a sequence is shown, tags or fusion partners need not be part of it.

T1: endogenous wild-type MuSK (muscle specific kinase) (mouse (endogenous in C2C12)) (UniProt Q61006)
T1 sequence: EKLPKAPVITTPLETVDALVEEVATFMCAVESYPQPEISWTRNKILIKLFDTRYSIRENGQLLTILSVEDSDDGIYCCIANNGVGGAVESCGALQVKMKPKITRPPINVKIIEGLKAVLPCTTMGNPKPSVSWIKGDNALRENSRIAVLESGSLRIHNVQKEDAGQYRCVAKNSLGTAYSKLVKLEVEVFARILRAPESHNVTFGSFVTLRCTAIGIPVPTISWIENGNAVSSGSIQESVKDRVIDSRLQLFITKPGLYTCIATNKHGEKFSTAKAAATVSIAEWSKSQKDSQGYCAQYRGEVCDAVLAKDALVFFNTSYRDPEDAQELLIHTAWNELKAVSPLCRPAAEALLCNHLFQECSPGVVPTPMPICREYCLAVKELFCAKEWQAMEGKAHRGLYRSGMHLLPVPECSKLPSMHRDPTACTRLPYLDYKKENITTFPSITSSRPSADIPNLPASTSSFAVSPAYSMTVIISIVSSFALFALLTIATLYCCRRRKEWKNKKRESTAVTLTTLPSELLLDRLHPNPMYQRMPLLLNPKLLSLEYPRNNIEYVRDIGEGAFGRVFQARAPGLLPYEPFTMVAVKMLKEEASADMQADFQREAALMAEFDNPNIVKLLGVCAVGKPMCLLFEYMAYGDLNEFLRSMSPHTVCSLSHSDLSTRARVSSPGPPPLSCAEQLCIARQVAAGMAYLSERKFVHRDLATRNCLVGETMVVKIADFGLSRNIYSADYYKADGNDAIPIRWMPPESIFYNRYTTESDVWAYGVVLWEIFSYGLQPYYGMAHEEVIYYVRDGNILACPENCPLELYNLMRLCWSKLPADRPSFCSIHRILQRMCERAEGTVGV

B1: exogenous MuSK wild-type with a N-terminal HA-Tag and a C-terminal Myc-Tag (LXSG/MuSK-WT) (receptor, UniProt Q62838 22-868)
chain: EKLPKAPVITTPLETVDALVEEVATFMCAVESYPQPEISWTRNKILIKLFDTRYSIRENGQLLTILSVEDSDDGIYCCTANNGVGGAVESCGALQVKMKPKITRPPINVKIIEGLKAVLPCTTMGNPKPSVSWIKGDSALRENSRIAVLESGSLRIHNVQKEDAGQYRCVAKNSLGTAYSKLVKLEVEVFARILRAPESHNVTFGSFVTLRCTAIGMPVPTISWIENGNAVSSGSIQENVKDRVIDSRLQLFITKPGLYTCIATNKHGEKFSTAKAAATVSIAEWSKSQKESKGYCAQYRGEVCDAVLVKDSLVFFNTSYPDPEEAQELLIHTAWNELKAVSPLCRPAAEALLCNHLFQECSPGVLPTPMPICREYCLAVKELFCAKEWLAMEGKTHRGLYRSGMHFLPVPECSKLPSMHQDPTACTRLPYLDYKKENITTFPSITSSKPSVDIPNLPASTSSFAVSPAYSMTVIISIMSCFAVFALLTITTLYCCRRRREWKNKKRESAAVTLTTLPSELLLDRLHPNPMYQRMPLLLNPKLLSLEYPRNNIEYVRDIGEGAFGRVFQARAPGLLPYEPFTMVAVKMLKEEASADMQADFQREAALMAEFDNPNIVKLLGVCAVGKPMCLLFEYMAYGDLNEFLRSMSPHTVCSLSHSDLSTRARVSSPGPPPLSCAEQLCIARQVAAGMAYLSERKFVHRDLATRNCLVGENMVVKIADFGLSRNIYSADYYKADGNDAIPIRWMPPESIFYNRYTTESDVWAYGVVLWEIFSYGLQPYYGMAHEEVIYYVRDGNILACPENCPLELYNLMRLCWSKLPADRPSFCSIHRILQRMCERAEGTVGV
B2: exogenous MuSK S751A with a N-terminal HA-Tag and a C-terminal Myc-Tag (receptor, UniProt Q62838 22-868)
chain: B1 chain with S730A
B3: exogenous MuSK S751D with a N-terminal HA-Tag and a C-terminal Myc-Tag (receptor, UniProt Q62838 22-868)
chain: B1 chain with S730D

Molecular target: T1, endogenous wild-type MuSK (muscle specific kinase) (mouse (endogenous in C2C12))
Test: co-IP; C2C12 muscle cells expressing endogenous MuSK and exogenous HA-MuSK-Myc; immunoprecipitation with an antibody that recognizes only endogenous MuSK; immunoblot with anti-MuSK and anti-Myc antibodies; quantified

binding, binds:
B1
B2
B3
